# Assay results: PubChem BioAssay AID1671190 (National Center for Advancing Translational Sciences (NCATS), 2021)
# Protein sequences, listed by entry. Tags and fused reporters are not part of them. Lines headed by an entry give the natural chain unless they say otherwise; changes in a name come on top.
# UniProt P18054: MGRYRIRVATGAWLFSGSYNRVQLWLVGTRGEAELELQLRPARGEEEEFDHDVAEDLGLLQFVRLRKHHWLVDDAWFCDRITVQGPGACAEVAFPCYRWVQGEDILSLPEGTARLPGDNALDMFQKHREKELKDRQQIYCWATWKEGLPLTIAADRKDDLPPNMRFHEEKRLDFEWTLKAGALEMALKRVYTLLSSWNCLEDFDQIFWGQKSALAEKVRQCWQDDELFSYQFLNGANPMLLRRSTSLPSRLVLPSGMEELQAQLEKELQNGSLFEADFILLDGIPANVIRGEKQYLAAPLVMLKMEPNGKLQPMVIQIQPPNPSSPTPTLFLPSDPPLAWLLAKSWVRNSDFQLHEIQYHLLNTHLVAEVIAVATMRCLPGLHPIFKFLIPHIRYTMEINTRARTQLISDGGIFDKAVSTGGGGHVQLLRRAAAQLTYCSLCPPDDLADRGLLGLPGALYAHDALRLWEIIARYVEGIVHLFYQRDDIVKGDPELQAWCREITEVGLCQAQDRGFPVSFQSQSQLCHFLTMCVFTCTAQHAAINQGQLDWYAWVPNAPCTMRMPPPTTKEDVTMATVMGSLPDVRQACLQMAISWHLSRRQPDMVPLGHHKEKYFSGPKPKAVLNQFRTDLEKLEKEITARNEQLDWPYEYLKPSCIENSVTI
# Where “and” joins values, the source holds several entries; their conditions need not be identical. Identical values can stand only once. Screen size: about 580,000 compounds; about 6,100 (1.1%) were called active. The shares of active, inactive and inconclusive entries below differ from those in the screen. Calls come from the whole dose curve; as a rule, active = well fitted inhibition curve with a large enough effect; inconclusive = small, poorly fitted or top-dose-only effect, or another doubt; inactive = no such curve, though single readings can be large or run the other way. A potency beside an inconclusive call is a rough fit, not a confirmed value.
# Molecular target: Polyunsaturated fatty acid lipoxygenase ALOX12 (Homo sapiens) (UniProt P18054)
# Assay: Primary qHTS assay for inhibitors of human arachidonate 12S-lipoxygenase (ALOX12): Round 2
# Settings: purified 12hLO, xylenol orange hydroperoxide absorbance; activity change, negative = inhibition: at 108 µM (top of the series) unless noted
# Procedure, shortened: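 Purified human 12hLO at 150 nM in 25 mM Hepes, 0.01% Triton X-100, pH 7.0, preincubated 15 min at room temperature with compound. Reaction started with 40 uM arachidonic acid, 30 min at room temperature. Hydroperoxide measured by Fe-xylenol orange, 573/405 nm absorbance ratio.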
# % is set by controls: 0 for no effect and ±100 for the full control effect; potency is the fitted concentration of half-maximal effect.
SMILES,"activity change, negative = inhibition",Potency
Nc1nc(Sc2ccc(C(F)(F)F)cc2[N+](=O)[O-])n[nH]1,inactive: 0%,–
O=C(CSc1ccc2ccccc2c1)NCCc1ccc(O)c(O)c1,–,"inconclusive: 31.6 µM [inhibitor, partial curve, poor fit]"
Cc1ccc(CSC2=NC(C)(C)Nc3ccccc32)c(C)c1,–,"inconclusive: 89.1 µM [inhibitor, single point] and inconclusive: 35.5 µM [inhibitor, full curve, poor fit]"
COc1ccc(-c2csc3ncnc(Nc4ccccc4)c23)cc1,inactive: -19.6%,–
O=C(Cn1cc(C(=O)c2ccco2)c2ccccc21)Nc1ccccc1C(F)(F)F,–,"inconclusive: 126 µM [inhibitor, single point]"
Cc1ccc(CN2CCCCCNC(=O)[C@H]3C[C@H](C(=O)N4CCc5ccccc5C4)C[C@H]32)o1,–,"inconclusive: 3.16 µM [inhibitor, full curve, poor fit]"
COC(=O)C1=C(C)NC(C)=C(C(=O)OCCCN2CCC(c3ccccc3)(c3ccccc3)CC2)[C@H]1c1cccc([N+](=O)[O-])c1,–,"inconclusive: 31.6 µM [inhibitor, partial curve, poor fit] and inconclusive: 31.6 µM [inhibitor, single point]"
CCOC(=O)c1nnn(C(CC)C(=O)Nc2cccc(OC)c2)c1C(=O)OCC (stereo unspecified),–,"inconclusive: 35.5 µM [inhibitor, partial curve, poor fit]"
CCN1CCCC1CNC(=O)c1ccc2c(c1)NC(=O)/C(=C\c1ccc(C)cc1)S2 (stereo unspecified),–,"inconclusive: 44.7 µM [inhibitor, partial curve, poor fit]"
COc1ccc(S(=O)(=O)NCCN2CCOCC2)c2ccccc12,–,"inconclusive: 100 µM [inhibitor, partial curve, poor fit]"
CC(C)c1ccc(NC(=S)NNC(=O)C(N)=O)cc1,–,"inconclusive: 0.0891 µM [inhibitor, full curve, poor fit]"
COC(=O)CCC(C)C1CCC2C3CCC4C[C@H](OC(=O)c5ccccc5)CCC4(C)C3CC(=O)C12C (stereo partly specified),inactive: 24.2%,–
CCCn1cc2c3c(cccc31)CN(C(=O)c1cccc(F)c1)CC2,inactive: 5.27%,–
CC(=O)N1CCC(C(=O)Nc2cccc(S(=O)(=O)N3CCCC3)c2)CC1,–,"inconclusive: 2.24 µM [inhibitor, full curve, poor fit]"
COc1ccc(CN2C[C@@H](CO)O[C@@H](n3cnc4c(NCc5cc(OC)c(OC)c(OC)c5)ncnc43)C2)cc1,inactive: 13%,–
CC(C)CC(=O)NC1CCN(c2ccc(F)cc2)C1=O (stereo unspecified),inactive: 18.9%,–
